# PubChem BioAssay AID1259308, NCATS, 2017
# Aim: 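Candidate targets for better recombinant protein yield in mammalian cells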 (primary screen)
# Cells: human HEK293 embryonic kidney cells stably expressing firefly luciferase (HEK-CMV-Luc2-Hygro)
# Knock-down reagent: single siRNA against human genes, 0.8 pmol siRNA per well
# Time to read-out: 72 h
# Measurement: 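Luciferase light (ONE-Glo) measured on one replicate plate set and viability (CellTiter-Glo) on the other, scaled to a negative control siRNA, with robust z-scores and luciferase per cell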
# Direction: total luciferase, z-score and total luciferase, % of control: higher = more reporter protein produced
# Call rule: 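An siRNA counts as active if its total luciferase robust z-score exceeds 3; genes with two or more such siRNAs out of three were retested with fresh siRNAs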
# Calls: active = raised luciferase; inactive = no rise
# Here is an unselected part of about 59,000 deposited reagents. About 1,510 of all reagents (2.6%) were called active. 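Calls use total luciferase alone and ignore viability, so some active siRNAs may act by altering cell number.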 Unmarked entries are inactive. Further read-outs or replicates are left out here. No sequences are given here.
gene,PubChem SID,"total luciferase, z-score","total luciferase, % of control"
PTK7,SID160715341,0.451,90.9
PTK7,SID160715342,1.17,105
PTK7,SID160731599,4.27 (active),167
CMTR2,SID160744347,-0.229,77.3
CMTR2,SID160744348,-0.169,78.5
CMTR2,SID160744349,0.148,84.8
FGFBP2,SID160751496,1.92,120
FGFBP2,SID160751497,3.53 (active),152
FGFBP2,SID160751498,-1.23,57.3
PARM1,SID160737113,-0.29,76.1
PARM1,SID160737114,-1.85,45
PARM1,SID160737115,2.81,138
GLRX2,SID160739875,-0.121,79.5
GLRX2,SID160739877,-1.24,57.2
GLRX2,SID160739878,-0.657,68.8
WDR44,SID160741850,-0.124,79.4
WDR44,SID160741851,1.21,106
WDR44,SID160741852,0.411,90.1
TOPORS,SID160727010,0.408,90
TOPORS,SID160727016,-0.808,65.8
TOPORS,SID160727024,0.532,92.5
RASA2,SID160715692,0.599,93.8
RASA2,SID160715693,1.12,104
RASA2,SID160715694,-0.946,63.1
GSKIP,SID160740939,-0.119,79.5
GSKIP,SID160740940,0.854,98.9
GSKIP,SID160740941,-1.17,58.7
SLC22A14,SID160722097,0.605,93.9
SLC22A14,SID160722098,-0.31,75.7
SLC22A14,SID160722099,0.542,92.7
DNAAF5,SID160742493,0.494,91.7
DNAAF5,SID160742494,-0.624,69.5
DNAAF5,SID160742495,-1.41,53.8
RDH8,SID160739693,-0.322,75.5
RDH8,SID160739694,0.0836,83.5
RDH8,SID160739695,2.86,139
TMEM254,SID160750183,0.207,86
TMEM254,SID160750184,-0.158,78.7
TMEM254,SID160750185,-0.159,78.7
PGAP3,SID160754462,2.99,141
PGAP3,SID160754464,-0.56,70.7
PGAP3,SID160754465,-0.58,70.3
NIPSNAP3A,SID160737289,1.83,118
NIPSNAP3A,SID160737290,-0.0791,80.3
NIPSNAP3A,SID160737291,-0.75,67
POFUT2,SID160730836,0.989,102
POFUT2,SID160735900,0.588,93.6
POFUT2,SID160735901,0.504,91.9
BHMT,SID160726285,-0.289,76.1
BHMT,SID160726362,0.148,84.8
BHMT,SID160726413,-1.13,59.3
ADAMTSL3,SID160731592,-2.37,34.8
ADAMTSL3,SID160745791,-2.1,40.1
ADAMTSL3,SID160745792,-0.783,66.3
ZNF398,SID160746227,0.314,88.1
ZNF398,SID160746228,-0.406,73.8
ZNF398,SID160746230,2.1,124
ZFYVE9,SID160722062,0.593,93.7
ZFYVE9,SID160722063,-0.134,79.2
ZFYVE9,SID160722064,-0.186,78.2
LINC01465,SID160762896,-0.635,69.3
LINC01465,SID160762897,-2.46,32.9
LINC01465,SID160762898,-0.689,68.2
CMTM8,SID160759219,0.499,91.8
CMTM8,SID160759220,1.11,104
CMTM8,SID160759221,1.82,118
C11orf86,SID160762202,-1.75,47.1
C11orf86,SID160762203,0.0344,82.6
C11orf86,SID160762204,0.292,87.7
OR6Q1,SID160761406,-1.08,60.4
OR6Q1,SID160761407,-1.11,59.7
OR6Q1,SID160761409,-0.26,76.7
CDV3,SID160743820,2.92,140
CDV3,SID160743821,0.135,84.6
CDV3,SID160743822,-1.58,50.4

In a second layout: entries from further up.
gene	PubChem SID	total luciferase, z-score	total luciferase, % of control
GLRX2	SID160739875	-0.121	79.5
GLRX2	SID160739877	-1.24	57.2
GLRX2	SID160739878	-0.657	68.8
WDR44	SID160741850	-0.124	79.4
WDR44	SID160741851	1.21	106
WDR44	SID160741852	0.411	90.1
TOPORS	SID160727010	0.408	90
TOPORS	SID160727016	-0.808	65.8
TOPORS	SID160727024	0.532	92.5
RASA2	SID160715692	0.599	93.8
RASA2	SID160715693	1.12	104
RASA2	SID160715694	-0.946	63.1
